Experimental data published in patent publication US7205433B2, “Crystal of amino acid ester salt and process for producing the same” (Ajinomoto Co., Inc., priority 2002, dated 2007).

Experiments:
[1] = Experimental Example 6: corrosiveness evaluation; details: SUS 316 L; for corrosion state of the stainless plate: 22 EC, 30% RH; for corrosion state of the stainless plate and state of the salt: 8 days later (24° C., 65% RH; 6 hours)
[2] = Corrosiveness evaluation, summary
[3] = Experimental Example 3: comparison of corrosiveness to stainless; details: SUS 316 L; for corrosion state of the stainless plate: 22° C.; for corrosion state of the stainless plate and state of the salt: Day 8 (after standing at 24° C., 65% RH; 9 hours)

Compound	corrosion state of the stainless plate ([1]; 1 day later)	corrosion state of the stainless plate ([1]; 6 days later)	corrosion state of the stainless plate ([1]; 7 days later)	corrosion state of the stainless plate and state of the salt [1]	also measured
CCOC(=O)[C@H](C)N.O=S(=O)(O)c1ccc(Cl)cc1 [L-Ala-OEt 4-CBS salt, L-alanine ethyl ester 4-chlorobenzenesulfonate]	No change	No change	No change	partly liquefied, though without rust	–
CCOC(=O)[C@H](C)N.O=S(=O)(O)c1ccccc1 [L-Ala-OEt BsOH salt, L-alanine ethyl ester benzenesulfonate]	No change	No change	No change	–	corrosion state of the stainless plate and state of the salt ([1]; benzenesulfonate): partly liquefied, though without rust
CCOC(=O)[C@H](C)N.Cl [L-Ala-OEt HCl salt, alanine ethyl ester hydrochloride]	–	–	–	–	corrosiveness against stainless [2]: showed corrosiveness against stainless; corrosion state of the stainless plate ([3]; 30% RH, Day 1, hydrochloride): caused a brown rust on the stainless plate; corrosion state of the stainless plate ([3]; 30% RH, Day 7, hydrochloride): the rust increased; corrosion state of the stainless plate and state of the salt ([3]; hydrochloride): became a brown liquid with the color of the rust; corrosion state of the stainless plate ([1]; 1 day later, hydrochloride): developed a brown rust on the stainless plate; corrosion state of the stainless plate ([1]; 6 days later, hydrochloride): developed more rust
CCOC(=O)[C@H](C)N.CS(=O)(=O)O [L-Ala-OEt MsOH salt, L-alanine ethyl ester methanesulfonate]	No change	No change	No change	–	corrosion state of the stainless plate ([3]; 30% RH, Day 1): No change; corrosion state of the stainless plate ([3]; 30% RH, Day 7): No change; corrosion state of the stainless plate and change of the salt over the whole period ([3]; 7 days at 22° C., 30% RH, then 9 hours at 24° C., 65% RH): showed no change during this period, and no rust was found on the stainless plate
COC(=O)[C@H](C)N.Cl [L-Ala-OMe HCl salt, alanine methyl ester hydrochloride, reference compound]	No change	–	–	–	corrosiveness against stainless [2]: showed corrosiveness against stainless; corrosion state of the stainless plate ([3]; 30% RH, Day 1, hydrochloride): caused a brown rust on the stainless plate; corrosion state of the stainless plate ([3]; 30% RH, Day 7, hydrochloride): the rust increased; corrosion state of the stainless plate and state of the salt ([3]; hydrochloride): became a colorless liquid; corrosion state of the stainless plate ([1]; 6 days later, hydrochloride): developed a rust
L-alanine ethyl ester 2,4-dimethylbenzenesulfonate [L-Ala-OEt 2,4-DMBS salt]	No change	No change	No change	No change	–
L-alanine ethyl ester 2,5-dimethylbenzenesulfonate [L-Ala-OEt 2,5-DMBS salt]	No change	No change	No change	No change	–
L-alanine ethyl ester 4-ethylbenzenesulfonate [L-Ala-OEt 4-EBS salt]	No change	No change	No change	No change	–
